Assay results: patent US9668482B1, “Fused heterocyclic compound and pest control application thereof” (Sumitomo Chemical Company, Limited, priority 2014, dated 2017)
Some entries share one result that the patent states for a list of compounds. For at least one compound, name, drawing or mass did not settle the structure.

Columns and labels:
Format in all cases: in vivo
[1] = test system: brown planthopper (Nilaparvata lugens); assay: Test Example 3: brown planthopper on rice seedling, spray; settings: 200 ppm, 10 mL sprayed on rice seedling, 3rd to 4th instar larvae, after 6 days
[2] = test system: cotton aphid (Aphis gossypii); assay: Test Example 2: cotton aphid on cucumber seedling, irrigation into plant foot; settings: 200 ppm, 5 mL irrigated into plant foot, 7 days then aphids inoculated, additional 6 days
[3] = test system: house mosquito (Culex pipiens pallens); assay: Test Example 10: house mosquito larvae in treated water; settings: active ingredient concentration of 3.5 ppm in water, last instar larvae, after 1 day
[4] = test system: summer fruit tortrix (Adoxophyas orana fasciata); assay: Test Example 7: summer fruit tortrix on sprayed apple plant; settings: 200 ppm, 20 mL/cup sprayed on apple plant, first instar larvae, after 7 days
[5] = test system: brown planthopper (Nilaparvata lugens); assay: Test Example 4: brown planthopper on rice seedling, irrigation into plant foot; settings: 200 ppm, 5 mL irrigated into plant foot, 7 days then larvae released, additional 6 days
[6] = test system: cotton aphid (Aphis gossypii); assay: Test Example 1: cotton aphid on cucumber seedling, spray of diluted solution; settings: 200 ppm, 20 mL sprayed on cucumber seedling, after 6 days

Compound: CCS(=O)(=O)c1ccc(-n2cnc(Cl)n2)nc1-c1nc2cc(C(F)(F)F)cnc2n1C [compound 2]
- Controlling value [1]: ≥ 90%

Compound: CCS(=O)(=O)c1ccc(-n2cnc(C)n2)nc1-c1nc2cc(C(F)(F)F)cnc2n1C [compound 4]
- Controlling value [2]: ≥ 90%
- Controlling value [1]: ≥ 90%

Compound: CCS(=O)(=O)c1ccc(-n2cnc(C(F)(F)F)n2)nc1-c1nc2cc(C(F)(F)F)cnc2n1C [compound 5]
- Mortality of insects [3]: ≥ 95%

Compound: CCS(=O)(=O)c1ccc(-n2cnc(SC)n2)nc1-c1nc2cc(C(F)(F)F)cnc2n1C [compound 7]
- Mortality of insects [3]: ≥ 95%

Compound: CCS(=O)(=O)c1ccc(-n2cnc(S(C)(=O)=O)n2)nc1-c1nc2cc(C(F)(F)F)cnc2n1C [compound 8]
- Controlling value [2]: ≥ 90%
- Controlling value [1]: ≥ 90%
- Mortality of insects [3]: ≥ 95%

Compound: CCS(=O)(=O)c1ccc(-n2cnc(N)n2)nc1-c1nc2cc(C(F)(F)F)cnc2n1C [compound 9]
- Controlling value [1]: ≥ 90%

Compound: CCS(=O)(=O)c1ccc(-n2cnc(C(=O)OC)n2)nc1-c1nc2cc(C(F)(F)F)cnc2n1C [compound 11]
- Mortality of insects [4]: ≥ 90%
- Mortality of insects [3]: ≥ 95%

Compound: CCS(=O)(=O)c1ccc(-n2cnc(C#N)n2)nc1-c1nc2cc(C(F)(F)F)cnc2n1C [compound 12]
- Controlling value [2]: ≥ 90%
- Controlling value [5]: ≥ 90%

Compound: CC[S+]([O-])c1ccc(-n2cnc(Cl)n2)nc1-c1nc2cc(C(F)(F)F)cnc2n1C (centres unmarked) [compound 19]
- Controlling value [6]: ≥ 90%

Compound: CC[S+]([O-])c1ccc(-n2cnc(C(F)(F)F)n2)nc1-c1nc2cc(C(F)(F)F)cnc2n1C (centres unmarked) [compound 21]
- Mortality of insects [3]: ≥ 95%

Compound: CC[S+]([O-])c1ccc(-n2cnc(SC)n2)nc1-c1nc2cc(C(F)(F)F)cnc2n1C (centres unmarked) [compound 22]
- Mortality of insects [3]: ≥ 95%

Compound: CCS(=O)(=O)c1ccc(-n2cnc(SC)n2)nc1-c1nc2cc(C(F)(F)F)c[n+]([O-])c2n1C [compound 27]
- Controlling value [5]: ≥ 90%
